Earlier results as cited in patent US11123340B2, “Small-molecule UT-A-selective urea transport inhibitors” (The Regents of the University of California, priority 2014, dated 2021).
Some results were stated once for a whole list of compounds, not compound by compound. Some ranges recur; such a range may be that of the whole group of compounds.

System: UT
Settings: literature; cited from earlier work

| SMILES | concentration exhibiting activity |
| --- | --- |
| CNC(=O)NC [dimethylurea] | 50 to 100 mM |
| CNC(N)=O [methylurea] | 50 to 100 mM |
